Results of single-concentration screens

Protein sequences, listed by entry. Tags and fused reporters are not part of them. Residues count along the entry.
UniProt I6X8D2, whole entry: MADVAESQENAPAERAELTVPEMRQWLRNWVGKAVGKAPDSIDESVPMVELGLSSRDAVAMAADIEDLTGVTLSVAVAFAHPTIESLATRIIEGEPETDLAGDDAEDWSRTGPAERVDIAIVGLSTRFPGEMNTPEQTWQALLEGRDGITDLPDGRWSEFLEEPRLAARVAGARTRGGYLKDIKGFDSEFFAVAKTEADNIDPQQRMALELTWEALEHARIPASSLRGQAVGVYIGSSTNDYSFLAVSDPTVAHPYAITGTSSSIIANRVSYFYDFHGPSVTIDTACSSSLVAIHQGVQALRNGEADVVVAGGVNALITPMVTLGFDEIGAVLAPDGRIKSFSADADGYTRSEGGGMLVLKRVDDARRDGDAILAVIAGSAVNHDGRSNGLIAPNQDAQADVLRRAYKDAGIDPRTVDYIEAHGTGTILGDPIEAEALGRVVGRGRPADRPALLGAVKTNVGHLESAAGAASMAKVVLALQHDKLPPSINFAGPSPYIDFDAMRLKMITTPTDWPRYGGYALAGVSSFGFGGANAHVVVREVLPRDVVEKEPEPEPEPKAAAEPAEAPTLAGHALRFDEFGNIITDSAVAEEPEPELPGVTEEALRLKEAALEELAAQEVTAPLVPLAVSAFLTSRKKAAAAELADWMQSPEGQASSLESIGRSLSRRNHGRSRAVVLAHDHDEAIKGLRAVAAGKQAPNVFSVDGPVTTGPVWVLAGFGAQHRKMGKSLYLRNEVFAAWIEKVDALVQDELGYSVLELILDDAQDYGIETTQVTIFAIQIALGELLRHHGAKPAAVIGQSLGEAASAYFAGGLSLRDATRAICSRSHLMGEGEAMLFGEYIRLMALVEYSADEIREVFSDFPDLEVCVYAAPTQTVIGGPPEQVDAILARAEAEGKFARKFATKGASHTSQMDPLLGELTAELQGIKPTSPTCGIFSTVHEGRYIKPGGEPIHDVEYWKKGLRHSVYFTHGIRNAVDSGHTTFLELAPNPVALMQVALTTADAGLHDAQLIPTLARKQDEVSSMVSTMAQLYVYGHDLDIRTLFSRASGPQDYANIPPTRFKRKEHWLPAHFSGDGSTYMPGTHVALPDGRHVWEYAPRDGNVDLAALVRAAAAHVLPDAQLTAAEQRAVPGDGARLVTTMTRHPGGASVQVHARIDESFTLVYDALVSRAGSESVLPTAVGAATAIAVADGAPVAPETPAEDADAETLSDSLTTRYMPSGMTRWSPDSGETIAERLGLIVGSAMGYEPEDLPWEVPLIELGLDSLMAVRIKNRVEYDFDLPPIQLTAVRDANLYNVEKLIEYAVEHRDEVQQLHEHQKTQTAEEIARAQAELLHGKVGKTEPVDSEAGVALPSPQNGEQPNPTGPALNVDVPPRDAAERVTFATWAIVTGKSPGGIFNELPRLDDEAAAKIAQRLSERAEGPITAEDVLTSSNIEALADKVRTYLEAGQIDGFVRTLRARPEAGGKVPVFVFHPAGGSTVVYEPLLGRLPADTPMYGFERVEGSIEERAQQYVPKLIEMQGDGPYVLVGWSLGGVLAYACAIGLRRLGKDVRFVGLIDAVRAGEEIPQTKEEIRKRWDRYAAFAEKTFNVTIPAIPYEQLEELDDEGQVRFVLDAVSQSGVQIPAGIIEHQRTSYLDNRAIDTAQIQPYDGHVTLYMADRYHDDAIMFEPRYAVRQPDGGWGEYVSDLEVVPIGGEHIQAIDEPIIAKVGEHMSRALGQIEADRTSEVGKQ
UniProt A4I591, 1-473: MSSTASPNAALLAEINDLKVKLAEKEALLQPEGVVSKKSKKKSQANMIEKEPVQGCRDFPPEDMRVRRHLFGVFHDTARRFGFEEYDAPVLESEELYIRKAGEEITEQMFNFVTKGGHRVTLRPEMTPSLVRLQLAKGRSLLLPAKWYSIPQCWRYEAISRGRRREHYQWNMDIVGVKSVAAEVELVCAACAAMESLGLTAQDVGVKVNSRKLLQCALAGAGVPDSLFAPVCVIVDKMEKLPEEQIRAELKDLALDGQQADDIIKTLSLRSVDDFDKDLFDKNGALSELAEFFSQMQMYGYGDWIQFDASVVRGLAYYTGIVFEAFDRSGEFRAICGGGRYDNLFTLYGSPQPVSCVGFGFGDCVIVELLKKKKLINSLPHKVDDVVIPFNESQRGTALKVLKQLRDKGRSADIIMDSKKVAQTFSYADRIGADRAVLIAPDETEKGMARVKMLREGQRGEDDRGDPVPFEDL
UniProt P9WPC5, whole entry: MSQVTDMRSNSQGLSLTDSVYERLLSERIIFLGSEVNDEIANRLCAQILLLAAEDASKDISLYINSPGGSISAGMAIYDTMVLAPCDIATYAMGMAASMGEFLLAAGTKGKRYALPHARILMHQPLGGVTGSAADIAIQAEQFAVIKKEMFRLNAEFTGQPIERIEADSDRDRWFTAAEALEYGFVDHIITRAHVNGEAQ
UniProt P9WPC3, whole entry partner: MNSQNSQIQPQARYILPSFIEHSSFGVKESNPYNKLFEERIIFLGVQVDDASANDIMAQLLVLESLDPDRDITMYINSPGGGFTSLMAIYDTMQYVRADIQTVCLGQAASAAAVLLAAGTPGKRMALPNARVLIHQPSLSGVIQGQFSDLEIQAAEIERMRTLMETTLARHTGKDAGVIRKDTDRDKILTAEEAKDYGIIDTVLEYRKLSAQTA
UniProt P9WNZ1, whole entry: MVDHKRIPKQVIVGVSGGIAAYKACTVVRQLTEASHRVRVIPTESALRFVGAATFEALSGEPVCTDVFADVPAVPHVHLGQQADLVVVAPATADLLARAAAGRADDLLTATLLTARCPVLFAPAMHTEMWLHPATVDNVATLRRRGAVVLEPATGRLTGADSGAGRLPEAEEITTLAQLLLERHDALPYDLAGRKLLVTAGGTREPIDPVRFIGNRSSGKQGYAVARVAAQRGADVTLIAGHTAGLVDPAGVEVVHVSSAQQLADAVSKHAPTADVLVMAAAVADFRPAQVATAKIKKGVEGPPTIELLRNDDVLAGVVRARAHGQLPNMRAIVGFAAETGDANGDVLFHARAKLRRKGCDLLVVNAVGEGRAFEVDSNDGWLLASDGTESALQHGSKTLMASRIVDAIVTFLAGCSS

From ChEMBL document CHEMBL3988442, “University of Dundee, Small-Polar-MMV Screening Library” (2021).

Pks13 thioesterase: 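Polyketide synthase Pks13, Mycobacterium tuberculosis (UniProt I6X8D2). Enzyme assay of the thioesterase domain of polyketide synthase 13; the read-out is not stated. Concentration: 30 µM. The record gives no direction; the compounds picked for IC50 retests had high values, so higher reads as stronger inhibition. Of about 67,000 compounds tested this way, about 300 (0.46%) reached 50% or more in at least one test.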
LiHisRS: 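Histidine-tRNA ligase, Leishmania infantum (UniProt A4I591). Enzyme assay of histidyl-tRNA synthetase; the read-out is not stated. Compounds at 30 µM. Direction is inferred from retests: higher values go with stronger inhibition. The assay is labelled LdHisRS but filed under L. infantum. About 69,000 compounds were tested under these conditions; 0.6% (about 410) showed 50% or more at least once.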
Leishmania in macrophages: 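Cell assay of Leishmania donovani living inside macrophages; the read-out is not stated. Tested at 30 µM. Higher reads as stronger inhibition (inferred: compounds with an IC50 in retests scored well above the rest). Of about 69,000 compounds tested this way, about 1,000 (1.5%) reached 50% or more in at least one test.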
ClpP1P2: 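ClpP1P2, Mycobacterium tuberculosis (UniProt P9WPC5 and UniProt P9WPC3). Protease assay of ClpP1P2, read by the AMC dye that it sets free. Concentration: 50 µM. Higher reads as stronger inhibition, judged from the few compounds that gave an IC50. Most other retested compounds had strongly negative values. Of about 69,000 compounds tested this way, about 10 (0.015%) reached 50% or more in at least one test.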
Toxoplasma: 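Assay of Toxoplasma gondii numbers, read through their beta-galactosidase reporter with a colour substrate. Concentration: 10 µM. Higher reads as fewer parasites (inferred from which compounds were picked for retests). Size under these conditions: about 67,000 compounds, about 260 of them at 50% or above in at least one test.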
CoaBC: 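Coenzyme A biosynthesis protein CoaBC, Mycobacterium tuberculosis (UniProt P9WNZ1). Enzyme assay of CoaBC with a phosphate dye (Biomol Green) read at 650 nm. Compounds at 30 µM. Higher reads as stronger inhibition, judged from the few compounds that gave an IC50. Most strong results did not repeat in a second test. Of about 67,000 compounds tested this way, about 40 (0.06%) reached 50% or more in at least one test.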

Each number is a percent effect as filed.
The record does not define 0% and 100%; most values in the screen are far below 50% and negative numbers occur (in some assays of this library far below -100).
This is an unselected part of the compounds tested.
Two or more numbers in one place are separate tests of the same structure; such repeats can differ widely.
A dash means the value is not listed here; it may have been measured.

compound	Pks13 thioesterase	LiHisRS	Leishmania in macrophages	ClpP1P2	Toxoplasma	CoaBC
CC(C)CC(CCO)CNC(=O)N1CCCC1(C)C (centres unmarked)	-5%	-1.587%	-7.723%	-7.7%	8.555%	4.862%
CC(C#N)CN(C)C(=O)CCNC(=O)C(C)(C)C (centres unmarked)	-0.4843%	16.33%	2.256%	-6.977%	20.91%	3.802%
CCNc1cc2c(nn1)CCN(C(=O)c1cc(C)no1)C2	-11.42%	6.897%	13.34%	-15.51%	6.506%	0.7833%
CS(=O)(=O)c1cccc(C(N)c2ccccc2)c1 (centres unmarked)	-11.67%	1.786%	13.25%	-16.93%	-2.81%	-1.364%
Cc1nc2c(c(=O)n1C)CN(C(=O)C1CCN(C(=O)C3CCC3)CC1)C2	-23.96%	9.375%	12.3%	2.346%	1.387%	11.5%
CCn1cc(NC(=O)NCCc2ccc3c(c2)OCO3)cn1	-6.426%	13.68%	11.56%	-12.04%	9.783%	-7.507%
Cc1noc(C(C)C)c1C(=O)NCc1cccc(N(C)C)c1	-10.89%	-79.45%	-5.176%	7.955%	0.7411%	-3.133%
O=C(c1cc(Cl)ccc1F)N1CCCC1Cn1cccn1 (centres unmarked)	-9.078%	0%	-22.81%	-14.35%	4.641%	-9.383%
Cn1cc(CN(Cc2ccccc2)CC(O)c2cccs2)cn1 (centres unmarked)	-19.01%	3.774%	13.4%	-6.329%	1.861%	-9.692%
CCCc1n[nH]c(C2CN(C(=O)CCCn3cccn3)CCO2)n1 (centres unmarked)	-20.5%	2.885%	8.129%	-7.018%	-2.035%	-16.46%
CC(=O)N1C[C@H](NS(=O)(=O)c2cccc(Cl)c2)[C@@H](C(C)C)C1	-8.292%	1.149%	-8.385%	-14.5%	-51.04%	-1.342%
CC(=O)c1ccc(C(=O)N2CCCCC2c2nc[nH]n2)cc1 (centres unmarked)	2.869%	8.219%	66.49%	18.52%	15.39%	-0.7335%
Cc1nc(O)c2nnn(C[C@H]3CCCN3C(=O)c3ccc(F)cc3)c2n1	10.98%	1.042%	-11.6%	-3.712%	17.15%	0.9804%
CCCc1nc(CNC(=O)Cc2cc(C)no2)cs1	-6.159%	21.51%	14.66%	-9.914%	-7.743%	-2.211%
Cc1ccc(OCCCC(=O)NC(C)c2ccc(S(N)(=O)=O)cc2)cc1 (centres unmarked)	-21.13%	9.677%	-16.72%	4.443%	1.731%	2.689%
COC(=O)C1CCN(C(=O)c2nnc3ccc(C)cc3n2)CC1	6.544%	23.89%	9.554%	21.99%	4.637%	1.869%
O=C(O)COc1ccc(Cl)cc1CN1CCC2(CCOCC2)CC1	-27.22%	12.68%	13.34%	8.773%	-1.294%	-
CN(C)CCNCCC(Cc1ccccc1)C1CCOC(C)(C)C1.O=C(O)C(=O)O (centres unmarked)	-	-	11.95%	-	9.919%	-
O=C(O)C(F)(F)F.c1csc(CN2CCc3ncnc(C4CCOC4)c3CC2)n1 (centres unmarked)	-	-	3.507%	-	4.926%	-
CN(CC1CCN(c2ccccc2)C1)c1ccc(Cn2ccnc2)cn1 (centres unmarked)	-78.55%	48.68%	-5.433%	-8.716%	14.7%	-27.57%
CC(C)c1nnc2n1CCN(CCCS(=O)(=O)c1ccccc1)C2	-3.6%	10.96%	21.78%	1.854%	1.271%	2.892%
C[C@@H]1CN(C2(C(=O)N3CCNCC3)Cc3ccccc3C2)C[C@H](C)O1	-8.597%	20.55%	0.4691%	-11.4%	2.351%	-16.8%
O=C(Cn1cccnc1=O)NCCc1ccc2c(c1)OCCO2	-4.194%	14.86%	-25.68%	0.5243%	-3.151%	0.1304%
CC(C)=CCN1CCN(Cc2cc(C)c(O)c(C)c2)CC1CCO (centres unmarked)	-3.746%	1.429%	2.546%	12.19%	8.989%	-2.664%
NC(=O)c1cccc(CC2CCN(C(=O)CCCN3CCOCC3)C2)c1 (centres unmarked)	-6.301%	9.615%	20.91%	-4.278%	0%	-9.595%
N#Cc1ccc(OC2CCN(C(=O)c3cncc(Br)c3)CC2)nc1	-8.636%	6.612%	18.24%	-12.08%	-5.294%	0.1248%
CCOCc1nc(-c2cccc(OC)c2OC)n(C2CCN(C)CC2)n1	-7.933%	5.594%	-1.22%	17.98%	-8.075%	9.383%
COCCN1CCCC2(CCC(=O)N2Cc2cccnc2)C1.O=C(O)C(F)(F)F (centres unmarked)	-	-	15.05%	-	11.43%	-
CCN(CC)CC(=O)N1CCCC1Cn1cccn1 (centres unmarked)	-13.67%	8.475%	12.95%	-16.54%	0.9466%	3.937%
CN1CCOC(CNCc2coc(-c3cccc(Cl)c3)n2)C1 (centres unmarked)	-7.377%	12.5%	39.01%	-0.5983%	3.312%	14.04%
CN1C(=O)CC[C@]12CC[C@@H](NC(=O)NCc1cccnc1)CC2.O=C(O)C(F)(F)F	-	-	-4.194%	-	4.168%	-
Cc1ccc(CN2CCOC3(CCCN(C(=O)c4ccco4)C3)C2)o1 (centres unmarked)	-33.77%	13.89%	28.42%	-17.94%	1.478%	3.226%
CCOc1ncnc2c1CCN(Cc1cccs1)CC2	-36.32%	25%	-	-13.08%	-	4.194%
CC(C)c1nnsc1CNC(=O)C1CCN(C(=O)C2CC2)CC1	-	45.78%	-1.969%	-0.1509%	0.134%	-7.282%
CC(=O)N1CCN(C(=O)CN2CCN(c3cccc(C)c3)CC2)CC1	-6.197%	17.74%	6.146%	-9.503%	12.61%	4%
Cc1ccc(CN(C)C(=O)CN2CCCC2c2cnn(C)c2)cc1 (centres unmarked)	-	24.19%	14.79%	0.4907%	12.6%	-3.178%
CCC[C@@H]1CN(C(=O)c2cnc3ccccc3c2)C[C@H]1NS(C)(=O)=O	-4.843%	13.49%	30.1%	-12.29%	4.154%	0.2457%
[H][C@]12CN(CC3CC3)C(=O)[C@@]1([H])CN(S(=O)(=O)c1cccs1)C2	-	-	15.88%	-	-53.31%	-
Cc1cnn(-c2cccc(N3CCN(c4cc(C)nc(C)n4)CC3)n2)c1	3.155%	1.408%	-8.114%	-7.936%	33.74%	-0.4577%
CCOc1ccccc1C(CC(=O)Nc1ccccc1)NC(C)=O (centres unmarked)	-23.48%	-16.44%	19.14%	9.13%	7.769%	1.711%
COC(=O)CCN(C)Cc1cc(Br)cs1	6.843%	7.317%	-5.713%	-14.73%	8.69%	6.489%
O=C(Nc1nc2c(s1)CNCC2)C1CC1	4.473%	13.04%	-	-19.5%	-	0.2421%
CC(C)N1CCc2onc(Cn3cccc3)c2C1	-28.75%	15.79%	-	5.793%	-	0.2037%
C=C1C(C)(C)[C@H]2CC[C@]1(C(=O)N1CCC(n3cc(CCO)nn3)CC1)C2	-4.898%	16.67%	-	-11.38%	-	7.524%
CCCc1nc(C[S+]([O-])Cc2cn3cccc(C)c3n2)no1 (centres unmarked)	-7.906%	8.108%	38.29%	-6.149%	-1.023%	-7.004%
O[C@H]1CN(Cc2cc3ccccc3o2)CC[C@@]12CCCO2	2.978%	13.1%	14.53%	-4.662%	-1.378%	0.8653%
Cc1cccc(CN2CCCC(c3nccs3)C2)n1 (centres unmarked)	-2.995%	23.02%	7.525%	-22.28%	-29.01%	-2.392%
Cc1ccc(C2CCCN2S(=O)(=O)N(C)Cc2cnccn2)o1 (centres unmarked)	-5.084%	2.564%	2.412% & 3.861%	-2.64%	0.3078%	2.799%
O=C1Nc2ccccc2CNC12CCN(CC1CCNC1)CC2 (centres unmarked)	-4.542%	20.69%	2.121%	-8.685%	8.102%	6.579%
CC(C)OCCS(=O)(=O)N1CCN(Cc2cccn2C)CC1	13.78%	9.302%	38.14%	-1.989%	2.949%	-4.791%
CCC(C(=O)NC1CCN(S(C)(=O)=O)CC1)n1cccn1 (centres unmarked)	-15.91%	7.042%	30.99%	2.36%	-2.883%	5.492%
[H][C@@]12COC[C@]1(CNC(=O)c1ccno1)CN(Cc1cc(C)on1)C2	-	-	11.65%	-	-0.6993%	-
Cn1ccnc1CCNS(=O)(=O)Cc1cccc(C#N)c1	-47.05%	28.57%	11.37%	3.187%	18.8%	-

The last 4 entries again:

compound,Pks13 thioesterase,LiHisRS,Leishmania in macrophages,ClpP1P2,Toxoplasma,CoaBC
CC(C)OCCS(=O)(=O)N1CCN(Cc2cccn2C)CC1,13.78%,9.302%,38.14%,-1.989%,2.949%,-4.791%
CCC(C(=O)NC1CCN(S(C)(=O)=O)CC1)n1cccn1 (centres unmarked),-15.91%,7.042%,30.99%,2.36%,-2.883%,5.492%
[H][C@@]12COC[C@]1(CNC(=O)c1ccno1)CN(Cc1cc(C)on1)C2,-,-,11.65%,-,-0.6993%,-
Cn1ccnc1CCNS(=O)(=O)Cc1cccc(C#N)c1,-47.05%,28.57%,11.37%,3.187%,18.8%,-